The target of the experiment is Oct4 (Pou5f1), endogenous in mouse embryonic stem cells (mouse (endogenous in mouse ESCs)) (UniProt P20263). The experiment is described as follows: affinity purification with mass spectrometry; multimerised WT octamer dsDNA on FG magnetic beads (mutant DNA as control) incubated with Oct1 deficient mouse ESC lysate, 4 C, 4 h; washes 100, 200, 300 mM KCl; elution with 300 mM KCl and free DNA; LC-MS/MS, N = 3; Oct4 is held through the DNA.

Results are given in words; binding and its absence hold for the method and conditions named. Binding seen in cells or lysates may run through a third protein. Here binding means that the protein was enriched with, or labelled near, the bait; the list need not be complete.

B1: Kdm2b, endogenous in mouse embryonic stem cells (protein, UniProt Q6P1G2 1-1309)
chain: MEAEKDSGRRLRAIDRQRYDENEDLSDVEEIVSVRGFSLEEKLRSQLYQGDFVHAMEGKDFNYEYVQREALRVPLVFRDKDGLGIKMPDPDFTVRDVKLLVGSRRLVDVMDVNTQKGTEMSMSQFVRYYETPEAQRDKLYNVISLEFSHTKLEHLVKRPTVVDLVDWVDNMWPQHLKEKQTEATNALAEMKYPKVKKYCLMSVKGCFTDFHIDFGGTSVWYHVFRGGKIFWLIPPTLHNLALYEEWVLSGKQSDIFLGDRVERCQRIELKQGYTFFIPSGWIHAVYTPVDSLVFGGNILHSFNVPMQLRIYEIEDRTRVQPKFRYPFYYEMCWYVLERYVYCVTQRSYLTQEYQRELMLIDAPRKTSVDGFSSDSWLDMEEESCEQQPQEEEEEEEDKEEEGDGADKTPKPPTDDPTSPTSTPPEDQDSTGKKPKAPAIRFLKRTLSNESEESVKSTSMPTDDPKTPTGSPATEVSTKWTHLTEFELKGLKALVEKLESLPENKKCVPEGIEDPQALLEGVKNVLKEHVDDDPTLAITGVPVVSWPKKTAKNRVVGRPKGKLGPASAVKLAANRTTAGARRRRTRCRKCEACLRTECGECHFCKDMKKFGGPGRMKQSCIMRQCIAPVLPHTAVCLVCGEAGKEDTVEEEEGKFNLMLMECSICNEIIHPGCLKIKESEGVVNDELPNCWECPKCNHAGKTGKQKRGPGFKYASNLPGSLLKEQKMNRDNKEGQEPAKRRSECEEAPRRRSDEHPKKVPADGILRRKSDDVHLRRKRKYEKPQELSGRKRASSLQTSPGSSSHLSPRPPLGSSLSPWWRSSLTYFQQQLKPGKEDKLFRKKRRSWKNAEDRLSLANKPLRRFKQEPEDDLPEAPPKTRESDQSRSSSPTAGPSTEGAEGPEEKKKVKMRRKRRLVNKELSKELSKELNHEIQKTESTLAHESQQPIKSEPESENDEPKRPLSHCERPHRFSKGLNGTPRELRHSLGPGLRSPPRVMSRPPPSASPPKCIQMERHVIRPPPISPPPDSLPLDDGAAHVMHREVWMAVFSYLSHRDLCVCMRVCRTWNRWCCDKRLWTRIDLNRCKSITPLMLSGIIRRQPVSLDLSWTNISKKQLSWLINRLPGLRDLVLSGCSWIAVSALCSSSCPLLRTLDVQWVEGLKDAQMRDLLSPPTDNRPGQMDNRSKLRNIVELRLAGLDITDVSLRLIIRHMPLLSKLQLSYCNHINDQSINLLTAVGTTTRDSLTEVNLSDCNKVTDLCLSFFKRCGNICHIDLRYCKQVTKEGCEQFIAEMSVSVQFGQVEEKLLQKLS
Regarding B1, the binding result was “binds”.

For the origin of these results see PMC12664036.
